Assay [1] concerns the target GST-fused receptor binding domain of BoNT/A2 (GST-HcA2) (Clostridium botulinum A2 Kyoto-F) (UniProt Q45894). The assay is described as follows: pull-down; only the target purified.
Assay [2] has as its target GST-fused receptor binding domain of BoNT/A1 (GST-HcA1) (Clostridium botulinum) (UniProt A2I2U2). The assay is described as follows: pull-down; only the target purified.

By UniProt entry, the sequences of proteins in these tests, tags left out.
UniProt Q02563, whole entry: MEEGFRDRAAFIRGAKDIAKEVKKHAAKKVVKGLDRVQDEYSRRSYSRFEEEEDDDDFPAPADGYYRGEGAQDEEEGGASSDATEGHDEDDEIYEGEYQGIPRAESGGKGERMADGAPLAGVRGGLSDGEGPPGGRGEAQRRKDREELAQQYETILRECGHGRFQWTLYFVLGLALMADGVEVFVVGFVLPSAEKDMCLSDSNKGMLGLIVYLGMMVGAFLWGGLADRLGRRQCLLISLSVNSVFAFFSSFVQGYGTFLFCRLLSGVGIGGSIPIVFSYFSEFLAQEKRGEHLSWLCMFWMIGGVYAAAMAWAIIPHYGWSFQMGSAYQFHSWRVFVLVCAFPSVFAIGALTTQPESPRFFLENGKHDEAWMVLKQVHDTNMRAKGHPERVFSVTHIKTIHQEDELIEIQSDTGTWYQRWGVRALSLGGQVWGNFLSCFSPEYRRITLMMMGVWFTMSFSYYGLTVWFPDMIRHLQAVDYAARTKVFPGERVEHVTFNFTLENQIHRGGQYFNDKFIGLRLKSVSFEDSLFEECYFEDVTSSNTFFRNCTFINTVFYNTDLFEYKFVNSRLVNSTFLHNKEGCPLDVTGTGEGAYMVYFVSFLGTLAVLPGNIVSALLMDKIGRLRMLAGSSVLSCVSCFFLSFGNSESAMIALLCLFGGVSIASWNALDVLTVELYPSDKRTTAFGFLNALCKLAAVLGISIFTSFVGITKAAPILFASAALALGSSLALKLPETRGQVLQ
UniProt Q63564, whole entry: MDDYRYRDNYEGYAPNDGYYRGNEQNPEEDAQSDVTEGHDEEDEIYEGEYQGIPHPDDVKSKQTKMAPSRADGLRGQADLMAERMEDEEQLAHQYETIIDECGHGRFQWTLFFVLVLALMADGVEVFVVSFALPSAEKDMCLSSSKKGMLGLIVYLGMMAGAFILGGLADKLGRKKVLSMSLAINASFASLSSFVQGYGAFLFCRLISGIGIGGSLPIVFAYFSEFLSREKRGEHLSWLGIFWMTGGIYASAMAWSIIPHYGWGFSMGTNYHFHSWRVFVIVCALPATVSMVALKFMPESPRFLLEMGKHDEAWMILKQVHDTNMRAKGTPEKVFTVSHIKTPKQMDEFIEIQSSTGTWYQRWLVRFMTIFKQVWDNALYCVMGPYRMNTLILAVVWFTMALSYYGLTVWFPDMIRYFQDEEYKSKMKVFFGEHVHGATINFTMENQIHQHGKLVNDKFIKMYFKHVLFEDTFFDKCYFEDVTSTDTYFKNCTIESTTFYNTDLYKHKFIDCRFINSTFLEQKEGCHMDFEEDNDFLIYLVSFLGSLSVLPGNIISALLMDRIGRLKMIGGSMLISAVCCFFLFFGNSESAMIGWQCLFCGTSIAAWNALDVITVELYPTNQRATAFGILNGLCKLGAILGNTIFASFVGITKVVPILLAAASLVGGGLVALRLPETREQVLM

No constants are given. Whether binding was seen depends on the method and setting. Binding seen in cells or lysates may run through a third protein. Some entries that bind do so weakly or less than the wild type.

Take “SV2A of rat brain detergent extract (glycosylated) (from UniProt Q02563 1-742) (receptor)”: the binding result in assay [1] and in assay [2] was “binds” in each case.
For the substance “SV2B of rat brain detergent extract (glycosylated) (from UniProt Q63564 1-683) (receptor)”, the binding result in assay [1] and in assay [2] was “binds” each time.
